The source of these data is US20190233516A1.

By UniProt entry, the sequences of proteins in these tests, tags left out. Residues count along the entry.
UniProt P15209, residues 32-821: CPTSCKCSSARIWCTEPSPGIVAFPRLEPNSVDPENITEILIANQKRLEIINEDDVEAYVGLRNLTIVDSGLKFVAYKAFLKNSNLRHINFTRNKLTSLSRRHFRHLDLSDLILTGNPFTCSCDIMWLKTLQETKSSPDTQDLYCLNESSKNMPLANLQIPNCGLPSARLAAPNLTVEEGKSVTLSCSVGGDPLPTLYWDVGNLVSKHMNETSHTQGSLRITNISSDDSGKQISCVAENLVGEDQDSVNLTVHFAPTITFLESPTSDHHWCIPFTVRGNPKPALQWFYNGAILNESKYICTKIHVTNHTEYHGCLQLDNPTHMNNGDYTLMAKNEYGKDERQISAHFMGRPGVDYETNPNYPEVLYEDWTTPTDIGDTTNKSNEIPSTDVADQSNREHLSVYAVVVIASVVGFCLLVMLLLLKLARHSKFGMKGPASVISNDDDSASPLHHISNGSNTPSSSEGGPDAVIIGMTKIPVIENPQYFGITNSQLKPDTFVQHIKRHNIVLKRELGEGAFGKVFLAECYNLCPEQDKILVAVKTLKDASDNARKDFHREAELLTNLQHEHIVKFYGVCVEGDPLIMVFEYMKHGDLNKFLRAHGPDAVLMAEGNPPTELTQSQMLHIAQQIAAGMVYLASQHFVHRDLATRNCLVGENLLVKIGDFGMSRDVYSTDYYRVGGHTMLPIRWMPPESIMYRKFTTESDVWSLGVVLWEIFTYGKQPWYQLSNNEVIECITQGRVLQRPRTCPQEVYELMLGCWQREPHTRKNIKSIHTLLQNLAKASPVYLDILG

For the test, the target named is Mouse TrkB (tyrosine receptor kinase B) on RAW 264.7 cells (mouse) (UniProt P15209). Kind of test: coculture of BW5147 cells carrying the chimeric receptor with RAW cells overexpressing TrkB; binding is told in words and read out by IL-2 ELISA.

Results are given in words; binding and its absence hold for the method and conditions named. Some results given as binding are weak or reduced against the parent protein; the word gives no strength. Sequences can lack the tags named with a protein.

B1: TrkB-Myc-WT chimeric transmembrane protein (anti-TrkB VL-linker-VH-Myc-hinge-TM cytoplasmic part, wild type zeta chain) (scFv)
chain: DVVMTQLPLSLPVILGDQASISCRSSQSLIHSNGNTYLHWYLQKPGQSPKLLIYKVSNRFSGVPDRFSGSGSGTDFTLKISRVEAEDLGVYFCSQSTHVPFTFGSGTKLEIKRAGGSSRSSSSGGGGSGGGGQVQLQQSGPELVKPGASVKLSCKASGYTFTSYDINWVKQRPGQGLEWIGWIYPRDGSIKFNEKFKGKATLTVDTSSSTAYMELHSLTSEDSAAYFCARRGRLLLYGFAYWGQGTLVTVSAVDEQKLISEEDLALSNSIMYFSHFVPVFLPAKPTTTPAPRPPTPAPTIASQPLSLRPEASRPAAGGAVHTRGLDLCYLLDGILFIYGVIITALYLRAKFSRSAETAANLQDPNQLYNELNLGRREEYDVLEKKRARDPEMGGKQQRRRNPQEGVYNALQKDKMAEAYSEIGTKGERRRGKGHDGLYQGLSTATKDTYDALHMQTLAPR
In the case of B1, the binding entry is listed as “binds”.
